# Data published in the supplement of paper PMC3334620.
# The full ranking holds about 33,000 sequences; the median of “E-score (-0.5 to 0.5)” is about -0.016, and the highest 2% start at about 0.3. The list shows a part of the results.
# Biological target: T1, Yer184c (UniProt P39961)
# T1 sequence: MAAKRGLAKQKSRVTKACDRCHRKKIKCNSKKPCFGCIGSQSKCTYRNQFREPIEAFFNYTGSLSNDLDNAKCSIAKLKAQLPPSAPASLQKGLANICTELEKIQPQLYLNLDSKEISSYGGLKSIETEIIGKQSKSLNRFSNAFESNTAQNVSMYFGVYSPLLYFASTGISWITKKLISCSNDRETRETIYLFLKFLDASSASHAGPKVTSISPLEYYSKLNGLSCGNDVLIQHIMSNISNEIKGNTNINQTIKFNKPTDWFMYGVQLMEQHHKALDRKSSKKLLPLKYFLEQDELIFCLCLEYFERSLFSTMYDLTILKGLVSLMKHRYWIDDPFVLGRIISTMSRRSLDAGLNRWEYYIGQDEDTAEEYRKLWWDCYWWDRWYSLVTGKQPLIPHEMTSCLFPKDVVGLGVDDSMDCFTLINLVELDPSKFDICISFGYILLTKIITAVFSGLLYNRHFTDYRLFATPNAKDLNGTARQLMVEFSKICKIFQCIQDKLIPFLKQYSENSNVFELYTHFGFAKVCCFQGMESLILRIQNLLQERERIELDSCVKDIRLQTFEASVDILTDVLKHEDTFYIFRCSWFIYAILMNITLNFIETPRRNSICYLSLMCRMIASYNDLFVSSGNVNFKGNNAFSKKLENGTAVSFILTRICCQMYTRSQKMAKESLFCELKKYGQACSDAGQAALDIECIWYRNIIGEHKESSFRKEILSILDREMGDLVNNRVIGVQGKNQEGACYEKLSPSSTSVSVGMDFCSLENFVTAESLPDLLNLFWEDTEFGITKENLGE
# Experiment: PBM E-score (8-mer binding enrichment) (E-score (-0.5 to 0.5)); higher = stronger / more preferred TF binding
# Details: protein concentration: 100 nM; construct: GST-full length
# Summary of the method: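 Using PURExpress in vitro transcription/translation, GST-tagged yeast transcription factors were made in full-length or DNA-binding-domain form. These were applied at about 100-200 nM to double-stranded universal all-10-mer Agilent arrays, and bound protein was detected with fluorescent anti-GST. Scans were normalised with masliner before the Universal PBM Analysis Suite assigned E-scores to ungapped eight-base words pooled with their reverse complements.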
row,Sequence,PBM E-score
1,CGCGCAGC,-0.0875
2,GAGCACGC,-0.0691
3,AAAGTCGA,-0.0507
4,AACACGCT,-0.177
5,AATCATAC,0.0932
6,ACCGTCTA,-0.119
7,CTGTGTCC,0.0636
8,CTTTTCTC,0.0363
9,ACTCTAGC,-0.204
10,ATAGAAAT,0.318
11,CGACTATC,-0.2
12,ATCCCCAA,-0.203
13,TAGGGCGA,-0.191
14,CAAGTCTA,-0.0527
15,TAATGAGA,-8e-05
16,CCTGGTCC,-0.252
17,AGTGATTA,0.1
18,AATCTGAC,-0.0139
19,CCCTCCGA,-0.0303
20,GGCTCTCA,-0.0818
21,CATACTTA,0.0423
22,CTTACGGC,0.061
23,CCGTCCTC,-0.151
24,AACCTTTA,-0.0862
25,AAACCGGA,0.306

row,Sequence,PBM E-score
1,GCTTTGCA,-0.132
2,CTGGCGCA,-0.272
3,AACACCCC,-0.138
4,CCAAGTAA,0.119
5,GTGCCCAC,-0.254
6,CTTTTAGA,0.0275
7,GACGAGTA,0.0407
8,AGAGTTAT,-0.0321
9,CCCCCGCC,-0.254
10,GACACAGC,0.0337
11,ACTTACGA,0.143
12,AGGGTGGA,-0.209
13,ATAGTATG,0.14
14,CAGTGTAG,0.0719
15,ATAACCTC,-0.045
16,CACCCGCC,0.15
17,CGGGAAGC,0.138
18,GGAACTAC,0.101
19,GAAAAACA,0.0622
20,TAGGAGGA,-0.134
21,CCCTGGCA,-0.241
22,ACCTCAAA,0.137
23,ATATATAT,0.336
24,GCTCACAA,0.0464
25,ATATCAAC,0.145

row,Sequence,PBM E-score
1,CGTCCAAC,-0.113
2,CTAGGCTC,-0.177
3,ACCGCGTG,0.0132
4,AAGACACA,0.0112
5,GTCCCGAA,0.0202
6,AAATATCT,0.163
7,CAGCATGA,-0.179
8,ACCGGGTA,0.0512
9,CGATGTCA,0.0416
10,CCATCATC,-0.0628
11,AACGCTAG,-0.0531
12,ACGTCTCT,0.0341
13,TCCAGGCA,-0.15
14,AGAACGAG,0.0599
15,ACGTAGAT,-0.0898
16,GATTCCAC,0.259
17,AGGACCAC,-0.14
18,CACAAAGA,0.19
19,GGCTTCGA,-0.0295
20,GTCCTTTA,0.0142
21,CGCGCCAG,0.0148
22,GGCGGGAC,-0.0223
23,ACCTCGTC,-0.0978
24,GTGCCTCA,-0.15
25,GGTGGAAA,-0.179

row,Sequence,PBM E-score
1,GGATAATA,0.194
2,AAAGATTC,0.213
3,AAGGTGAC,-0.0789
4,GTCGCAAC,-0.133
5,CTAACATA,0.116
6,CACGCGGC,0.00537
7,CGATGGGC,-0.11
8,CAATACTC,0.0583
9,ATGAGCTC,-0.0459
10,CTCTGTTC,0.0192
11,CTAGAAAA,0.0997
12,GGTAAAAA,0.198
13,TCTGATAA,-0.0518
14,TATCCAAA,0.109
15,GCTAAAGA,0.0684
16,AAGGACAC,0.03
17,ACTGTCGC,-0.13
18,GAAGCTCC,0.0674
19,CCCAAGCA,-0.115
20,CATACAGC,-0.253
21,GCTCCAGC,-0.0486
22,AGTCGTAA,0.105
23,GCCACGGC,0.0819
24,GGGAGCAA,-0.223
25,GGCACGGA,0.168

# As a working copy, part of the list above:
row,Sequence,PBM E-score
4,GTCGCAAC,-0.133
5,CTAACATA,0.116
6,CACGCGGC,0.00537
7,CGATGGGC,-0.11
8,CAATACTC,0.0583

# (continued)

row,Sequence,PBM E-score
1,CCTCTCTA,-0.316
2,CTCTTGTA,-0.00465
3,GCGCGTGA,0.0968
4,AAAACCAC,-0.00328
5,GGGTACAC,-0.156
6,ACACTAGG,-0.0387
7,CTCCATAC,0.02
8,GACGCTTA,-0.148
9,CATCCTAC,-0.108
10,AGCCACTG,-0.0745
11,GAATCTAA,0.164
12,AGCTGGCC,-0.0332
13,GCGATTTA,0.0609
14,GATAGGGC,-0.0906
15,AAAGGAAT,0.0566
16,CCCCCGAA,-0.167
17,GCCGGAAA,0.426
18,TAGTCACA,-0.133
19,CTAAGGAG,-0.258
20,CCCGTATC,-0.0586
21,GAGCCTCA,-0.168
22,GGTTGCAC,-0.0434
23,ACGGCTAT,0.138
24,GGGCTCGA,-0.151
25,AAAATTGG,-0.138

row,Sequence,PBM E-score
1,CCGTTGTC,0.199
2,GAATTAAC,0.23
3,CAGTAGAC,0.0126
4,GGTGGTTA,-0.029
5,CTGGTTGC,0.114
6,AACACAGA,0.188
7,CACGGCGC,0.0977
8,CCATCGTC,-0.0348
9,CACTGGTA,-0.118
10,GGTACACC,-0.125
11,AATAGAAT,0.123
12,ATCACTAG,-0.254
13,GTACGCAC,-0.27
14,GAGTCCAA,-0.046
15,CAGCTGTA,-0.0331
16,CACCGGTA,0.159
17,TATTCGAA,-0.106
18,AATGTACT,0.0607
19,CTAGTCCC,-0.228
20,TGACGGCA,-0.0984
21,CAACAGAC,0.0137
22,CAGAAAAC,0.00421
23,ACGGCTCG,0.21
24,GTCAACAC,0.198
25,CTGACTTA,0.0522

row,Sequence,PBM E-score
1,ACTTCTCT,-0.106
2,AATTGCCC,0.00762
3,CTTACATC,0.0606
4,GAGACGGA,0.0834
5,TACCGTGA,0.0457
6,ACTGTCAA,-0.0973
7,CTTGAGTC,-0.0739
8,ATAGAGCG,-0.0792
9,ATGGTGCA,-0.0969
10,CCAGAACG,0.172
11,ATCGCCCG,0.0408
12,ACCGGTCA,0.184
13,AGCAGGCT,-0.112
14,GGCTTCCA,-0.072
15,ATGATAAC,0.127
16,ATGCAACG,-0.114
17,AGGTATGA,-0.00699
18,ACAACGTC,-0.0597
19,CACGGGTC,-0.0505
20,CGCCCCTC,-0.199
21,GGATTCCA,0.13
22,GACGGTAC,0.111
23,CAGATCTA,-0.0489
24,ATCACATA,0.126
25,CACCATGA,-0.0987

row,Sequence,PBM E-score
1,GATGAGCC,-0.0364
2,ACAATCAA,0.141
3,GACGGAGC,-0.0488
4,CCCTAGCG,-0.246
5,AACGACAA,0.211
6,AAATGATG,0.149
7,ATTACCGA,0.24
8,AGTCCACG,-0.201
9,CACATTCG,0.097
10,ATCGGTGA,0.0812
11,AGATTATC,0.0889
12,AATGCTCA,-0.0928
13,CCGTTATC,0.0784
14,AGCGAAGG,-0.0374
15,CTCCCTAA,-0.112
16,CTTTCCGA,0.3
17,ATGACCGC,-0.193
18,CGCGAACA,0.105
19,AATTGCTC,-0.164
20,ACTGATCA,0.0899
21,CCGCTTTA,0.0295
22,ATAGATTA,0.0924
23,GCCCGAAA,0.171
24,GCCGTCCA,0.06
25,CATCGCAG,-0.28

# 6 entries picked at random from the list so far:
row,Sequence,PBM E-score
9,CACATTCG,0.097
21,CCGCTTTA,0.0295
19,AATTGCTC,-0.164
1,GATGAGCC,-0.0364
20,ACTGATCA,0.0899
13,CCGTTATC,0.0784

# Further results:

row,Sequence,PBM E-score
1,GGGTGTTA,-0.165
2,AGACGCTG,-0.167
3,ACTAGCAG,-0.163
4,CTGTAGTC,-0.215
5,AGCTCTAC,-0.195
6,CCTTGCCA,-0.0398
7,ATACTAAG,0.144
8,GAATTCCC,-0.0339
9,CCGAGAAA,0.351
10,ATGCTGCC,-0.0664
11,GAAGCGCA,0.0914
12,GCCTCTAC,-0.29
13,AGGGTCAA,0.0329
14,CCAGCAGC,-0.205
15,GGTAATAC,0.14
16,ATAAGTTA,0.0936
17,AGCCCTTA,-0.102
18,GTCGTAAC,-0.0708
19,ACCGATAA,0.261

# Copied from the list:
# In PBM E-score, CCGTTGTC has 0.199
# In PBM E-score, CCAGCAGC has -0.205
# In PBM E-score, CTGGCGCA has -0.272
